Laboratory results published in PubChem BioAssay AID540276 (National Center for Advancing Translational Sciences (NCATS), 2011).
The whole screen tested about 300,000 compounds, of which about 5,400 (1.8%) were called active. This list was built around the results that the source calls inconclusive (neither active nor inactive); the mix of calls is not that of the screen. Calls follow the shape of the full dose curve; tested in HEK293 cells. Potencies of inconclusive entries are doubtful fits and often do not repeat.

experiment: qHTS for inhibitors of binding or entry into cells for Marburg Virus; details: Marburg virus pseudotyped entry inhibition, cell reporter; activity change, negative = inhibition: at 37.8 µM (top of the series) unless noted
% is scaled to controls: 0 for no effect and ±100 for the full control effect; potency is read from the fitted curve at half-maximal effect.

Row | Structure (SMILES) | Potency | activity change, negative = inhibition
1 | CN(C)C(=S)Nc1ccc2c(c1)OCO2 | inconclusive: 11.2 µM [activator, partial curve, poor fit] | –
2 | O=C(Nc1ccccc1Cl)O/N=C/c1ccc(F)cc1 | – | inactive: 7.01%
3 | Cc1cc2c(=O)n(Cc3ccco3)c(SCC(=O)NCc3ccco3)nc2s1 | – | inactive: -0.504%
4 | COC(=O)c1cccc(Cn2nc(C)c([N+](=O)[O-])c2C)c1 | inconclusive: 17.8 µM [inhibitor, single point] | –
5 | CCc1ccc2oc(-c3cc(N=Cc4cccc(OC)c4O)ccc3O)nc2c1 | inconclusive: 8.2 µM [inhibitor, partial curve, poor fit] | –
6 | CCCC1(c2ccccc2)NC(=O)N(CC(=O)N(C)Cc2c(F)cccc2Cl)C1=O (configuration not stated) | inconclusive: 0.355 µM [inhibitor, full curve, poor fit] | –
7 | N#CC1=C(N)Oc2cc(O)ccc2C1C1CCCCC1 (configuration not stated) | inconclusive: 35.5 µM [inhibitor, single point] | –
8 | CC(C)OC(=O)CN1CCN(C2c3ccccc3-c3ccccc32)CC1 | inconclusive: 5.62 µM [inhibitor, single point] | –
9 | O=C(O)c1nn(CCOc2cccc(Cl)c2)c(=O)c2ccccc12 | – | inactive: 3.52% [at 46.1 µM]
10 | CCNC(=O)[C@H]1O[C@@H](n2cnc3c(N)ncnc32)[C@H](O)[C@H]1O | inconclusive: 0.708 µM [inhibitor, full curve, poor fit] | –
11 | CCCCC(=O)Nc1ccccc1C#N | inconclusive: 15.8 µM [activator, single point] | –
12 | Cc1ncc(N=Nc2ccccc2Cl)c(-c2ccccc2)n1 | – | inactive: -1.89% [at 46.1 µM]
13 | Cc1ccc(-c2cc(C(=O)NCc3ccco3)c3ccccc3n2)s1 | inconclusive: 3.16 µM [inhibitor, full curve] | –
14 | O=C(/C=C/c1ccccc1)NC(=S)NNS(=O)(=O)c1ccccc1 | inconclusive: 12.6 µM [activator, partial curve, poor fit] | –
15 | O=C(NN=C1CCCCCC1)c1cc(-c2ccccc2)nc2ccccc12 | inconclusive: 11.2 µM [inhibitor, partial curve, poor fit] | –
16 | COC(=O)c1ccc(C)c(NC(=O)CCSc2ccc(C)cc2)c1 | – | inactive: 3.42%
17 | COc1ccc(S(=O)(=O)CCc2nnc(NC(=O)c3cccs3)s2)cc1 | inconclusive: 23.1 µM [activator, single point] | –
18 | COc1cccc(CNC(=O)CN2c3cccc4cccc(c34)S2(=O)=O)c1 | inconclusive: 5.62 µM [activator, single point] | –
19 | CC1(C)S/C(=N/N=C/c2cccs2)NC1=O | inconclusive: 35.5 µM [activator, single point] | –
20 | Cc1sc2ncnc(NCCN3CCOCC3)c2c1C | inconclusive: 14.6 µM [inhibitor, partial curve] | –
21 | CC(=O)c1sc(Nc2nc3cc4c(cc3s2)OCO4)nc1C | inconclusive: 3.55 µM [activator, partial curve, poor fit] | –
22 | CCCNC(=O)c1cc2cc([N+](=O)[O-])ccc2s1 | – | inactive: -2.9% [at 46.1 µM]
23 | CN(C)S(=O)(=O)Oc1ccccc1C(=O)Nc1ccccc1Cl | inconclusive: 2.24 µM [activator, partial curve, poor fit] | –

Another view of 4 compounds above:
Row,Structure (SMILES),Potency,"activity change, negative = inhibition"
14,O=C(/C=C/c1ccccc1)NC(=S)NNS(=O)(=O)c1ccccc1,"inconclusive: 12.6 µM [activator, partial curve, poor fit]",–
19,CC1(C)S/C(=N/N=C/c2cccs2)NC1=O,"inconclusive: 35.5 µM [activator, single point]",–
22,CCCNC(=O)c1cc2cc([N+](=O)[O-])ccc2s1,–,inactive: -2.9% [at 46.1 µM]
23,CN(C)S(=O)(=O)Oc1ccccc1C(=O)Nc1ccccc1Cl,"inconclusive: 2.24 µM [activator, partial curve, poor fit]",–

The listing continues.

Row | Structure (SMILES) | Potency | activity change, negative = inhibition
24 | CCOC(=O)c1ccc(OS(=O)(=O)c2ccccc2)c(OC)c1 | inconclusive: 29.1 µM [inhibitor, single point] | –
25 | Cc1cccc(N2CCN(Cc3cc(=O)n4ccsc4n3)CC2)c1C | inconclusive: 35.5 µM [inhibitor, single point] | –
26 | O=[N+]([O-])c1cc(C(F)(F)F)ccc1NN=C1CCCC1 | inconclusive: 20.6 µM [activator, single point] | –
27 | Cc1sc2ncnc(N3CCN(CCOc4ccc(Cl)cc4)CC3)c2c1C | inconclusive: 9.2 µM [inhibitor, partial curve, poor fit] | –
28 | COc1ccc(C(=O)NC2CC2)cc1OC1CCN(Cc2ccc(F)cc2)CC1 | – | inactive: -1.29%
29 | Cc1ccc(C(=O)NCC(=O)Nc2ccc3c(c2)CCC3)cc1 | inconclusive: 35.5 µM [activator, single point] | –
30 | CCOC(=O)c1cc(CC)sc1NC(=O)c1cc([N+](=O)[O-])ccc1N1CCOCC1 | inconclusive: 0.164 µM [inhibitor, full curve, poor fit] | –
31 | Cn1cc(CN2C[C@]3(C)C[C@H]2CC(C)(C)C3)c(-c2ccc3c(c2)OCCO3)n1 | inconclusive: 35.5 µM [inhibitor, single point] | –
32 | CCCC1(CCC)NC(=O)N(CC(=O)Nc2ccc3c(c2)OCCO3)C1=O | – | inactive: 0.226% [at 46.1 µM]
33 | CC(C)N(CC#CCC(O)(c1ccccc1)c1ccccc1)CCO | inconclusive: 35.5 µM [inhibitor, single point] | –
34 | O=C(NC(=O)c1ccc(F)cc1F)Nc1ccc(Cl)cc1 | inconclusive: 1.12 µM [activator, partial curve, poor fit] | –
35 | CCN1CCCC1CNC(=O)c1ccc(Sc2ccccc2Cl)c([N+](=O)[O-])c1 (configuration not stated) | inconclusive: 10 µM [inhibitor, partial curve, poor fit] | –
36 | Nc1ccccc1/C=N\N=C/c1ccccc1N | inconclusive: 5.62 µM [inhibitor, full curve, poor fit] | –
37 | Cn1c(=S)[nH]c2cccnc21 | – | inactive: 2.38%
38 | COC(=O)c1sccc1NC(=O)Cc1ccc(OC)cc1 | inconclusive: 0.316 µM [inhibitor, partial curve, poor fit] | –
39 | CCOc1ccc(N(CC(=O)NCc2ccc(OC)cc2)S(=O)(=O)c2c(C)[nH]c(=O)[nH]c2=O)cc1 | inconclusive: 5.62 µM [activator, single point] | –
40 | Cc1ccc(S(=O)(=O)N2CCCCC2)cc1NC(=O)CNc1ccc(C(F)(F)F)cc1 | inconclusive: 35.5 µM [inhibitor, single point] | –
41 | O=C(CN1C(=O)NC2(CCCC2)C1=O)Nc1cccc(-c2nnc3n2CCCCC3)c1 | inconclusive: 5.01 µM [inhibitor, single point] | –
42 | Cc1ccccc1-c1nn(-c2ccc(F)cc2F)cc1CNC1CC1 | – | inactive: -6% [at 46.1 µM]
43 | CCc1ccc(CN2CCC(n3nccc3NC(=O)c3cccc(F)c3)CC2)cc1 | inconclusive: 15.8 µM [inhibitor, single point] | –
44 | O=C(Cc1ccccc1[N+](=O)[O-])OCC(=O)N1CCN(c2ccccc2)CC1 | inconclusive: 5.01 µM [activator, partial curve, poor fit] | –
45 | CCOC(=O)c1c(NC(C)=O)c2c3c(sc2n1Cc1c(C)cc(C)cc1C)CCCC3 | inconclusive: 3.55 µM [inhibitor, partial curve, poor fit] | –
46 | CN=c1scc(-c2ccc(F)cc2)n1/N=C/c1ccc(O)c(O)c1 | active: 18.3 µM | –

Row | Structure (SMILES) | Potency | activity change, negative = inhibition
47 | CO/N=C/NC(=O)Cc1cn(-c2ncc(C(F)(F)F)cc2Cl)c2ccccc12 | inconclusive: 35.5 µM [inhibitor, partial curve, poor fit] | –
48 | Cc1ccc(C(=O)Oc2oc(-c3ccccc3)nc2C=Nc2ccc(N(C)C)cc2)cc1 | inconclusive: 5.17 µM [inhibitor, partial curve, poor fit] | –
49 | O=C(c1[nH]ncc1-c1ccc(Cl)cc1)C1CO1 (configuration not stated) | inconclusive: 3.55 µM [inhibitor, partial curve, poor fit] | –
50 | O=C1C(Cl)=C(Nc2ccc(F)cc2)C(=O)N1CCc1ccccc1 | inconclusive: 11.6 µM [activator, partial curve, poor fit] | –
51 | O=C(NN=C1CCCCCC1)c1ccc2c(c1)OCO2 | inconclusive: 6.31 µM [inhibitor, single point] | –
52 | O=C(Nc1cccc(S(=O)(=O)N2CCOCC2)c1)c1ccc2c(=O)n3c(nc2c1)CCCCC3 | inconclusive: 11.2 µM [inhibitor, single point] | –
53 | COc1ccc(NC(=O)CC2Oc3ccc(C)cc3NC2=O)cc1Cl (configuration not stated) | – | inactive: -8.95% [at 46.1 µM]
54 | Cc1ccc(S(=O)(=O)N2CCN(S(=O)(=O)c3ccccc3)C2c2ccc(N(C)C)cc2)cc1 (configuration not stated) | inconclusive: 14.6 µM [inhibitor, single point] | –
55 | O=S(=O)(NCCSCc1ccc(Cl)c(Cl)c1)c1ccc2c(c1)OCCO2 | inconclusive: 0.316 µM [inhibitor, partial curve, poor fit] | –
56 | CC/C(O)=C1\C(=O)CC(C)(C)CC1=NCCc1nc2ccccc2[nH]1 | inconclusive: 8.91 µM [inhibitor, partial curve, poor fit] | –
57 | COc1ccc2c(C)c(CCC(=O)NCc3cccc(Cl)c3)c(=O)oc2c1 | – | inactive: 29.9% [at 46.1 µM]
58 | O=C(Nc1ccc2c(c1)Cc1ccccc1-2)c1cccnc1 | – | inactive: -2.83%
59 | Cc1cc(C(=O)NC2CC(C)(C)Cc3c2cnn3-c2ccccc2C)c(C)o1 (configuration not stated) | inconclusive: 7.08 µM [inhibitor, full curve, poor fit] | –
60 | COc1cccc(/C=C2\CCC(C3CCCC3)C2=O)c1OC (configuration not stated) | inconclusive: 6.31 µM [activator, partial curve, poor fit] | –
61 | C/C(=C\c1ccccc1)C(=O)Nc1nccs1 | inconclusive: 2 µM [inhibitor, partial curve, poor fit] | –
62 | COc1cccc(F)c1C(=O)NC(=O)Nc1ccc2nc(C)oc2c1 | – | inactive: 7.73% [at 46.1 µM]
63 | CCCc1[nH]nc2c1C(CCc1ccccc1)C(C#N)=C(N)O2 (configuration not stated) | inconclusive: 7.08 µM [activator, full curve, poor fit] | –
64 | CSc1sc(C(=O)NCC2CC2)cc1S(=O)(=O)C(C)C | – | inactive: -1.34% [at 46.1 µM]
65 | CC(=O)NC(CC(=O)NC12CC3CC(CC(C3)C1)C2)c1ccccc1 (configuration not stated) | – | inactive: 2.33%
66 | CCNC(=S)Nc1ccc(C)c(S(=O)(=O)Nc2ccccc2OC)c1 | – | inactive: -24.5% [at 46.1 µM]
67 | CCN1CCN(Cc2ccc(NC(=O)Nc3ccccc3Cl)cc2)CC1 | inconclusive: 2.59 µM [activator, partial curve, poor fit] | –
